According to PubChem BioAssay AID192 (DTP/NCI, 2004):
The list does not hold the whole screen: it is rich in T/C values a quarter to a half above the control, in often repeated tests (any T/C) and in doses without a T/C. Other doses and runs of a compound stand elsewhere. T/C: endpoint of the treated group in % of that of the vehicle group. Some doses have a count of surviving animals in place of a T/C: the source holds a T/C of zero for them, seemingly a mark for toxic or unscored doses. Some doses without a T/C left all or most animals alive at the check, yet need not have been tolerated: the source hardly ever lists a survival T/C far under the control, and the zero likely stands for such cases as well. Survivors were counted at the toxicity check, usually on the fifth day, unless a day is given; later deaths do not show. Schedule codes are those of the source, read here as Q, the interval in days (D) or hours (H), X, the number of doses. Some molecules as drawn cover several salts, stereoisomers or complexes of the source; a dose is that of the sample tested. For survival time, this PubChem deposit counts one and a half times the control or more as active, and values a quarter to a half above the control carry no call in these data; other NCI protocols may use other cut-offs. Some T/C values carry the count of animals alive at the toxicity check (mostly the fifth day); without a count, all were alive then. Some entries hold several experiments; their values stand side by side, smallest first. Numbered stars: 1 amine (or outer) side, 2 acyl side, 3 side chain; on linkers, the order of the positions; unused ones are H or OH. Bridge positions count the residues as written; N and C are the ends. Square brackets hold non-standard residues; d marks the D form. Peptide text beside a SMILES is read from it. I, II: the chains in the order shown. Actinocin(1to9) = Cc1c2oc3c(C)ccc(C(=O)[*:2])c3nc-2c(C(=O)[*:1])c(N)c1=O; NMeV = CN[CH](C(=O)O)C(C)C; Sar = CNCC(=O)O

Test system: BDF1 mice, B16 melanoma ip, median survival T/C
Assay: NCI In Vivo Anticancer Drug Screen. Data for tumor model B16 Melanoma (intraperitoneal) in B6D2F1 (BDF1) mice
Settings: T/C endpoint: median survival time, higher T/C = longer survival
How it was run: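 Read-out: survival or tumor size, given as treated/control ratio. Controls received vehicle only; animals bore transplantable tumors.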

[1] = dose: 100.0 mg/kg/injection, schedule: Q01DX009 (ip), vehicle: Klucel (hydroxypropylcellulose) (HPC)
[2] = dose: 200.0 mg/kg/injection, schedule: Q01DX009 (ip), vehicle: Klucel (hydroxypropylcellulose) (HPC)
[3] = dose: 6.0 mg/kg/injection, schedule: Q04DX003 (ip), vehicle: saline with Tween-80
[4] = dose: 50.0 mg/kg/injection, schedule: Q01DX009 (ip), vehicle: Klucel (hydroxypropylcellulose) (HPC)
[5] = dose: 400.0 mg/kg/injection, schedule: Q01DX009 (ip), vehicle: Klucel (hydroxypropylcellulose) (HPC)
[6] = dose: 400.0 mg/kg/injection, schedule: Q01DX009 (ip), vehicle: saline
[7] = dose: 400.0 mg/kg/injection, schedule: Q01DX009 (ip), vehicle: saline with Tween-80

COc1ccc(C2c3cc4c(c(OC)c3CC3OCC(=O)C32)OCO4)cc1OC (stereo not drawn)
survivor count [1]: 7 of 9 | survivor count [2]: 9 of 10

CC[S][Hg][Cl]
survivor count [3]: 10 of 10 | survivor count (dose: 12.5 mg/kg/injection, schedule: Q04DX003 (ip), vehicle: saline with Tween-80): 6 of 10 | survivor count (dose: 25.0 mg/kg/injection, schedule: Q04DX003 (ip), vehicle: saline with Tween-80): 4 of 10

Nc1cc2c(c[n+](CCCCCCCC[n+]3cc4c5ccccc5c(N)cc4c4ccccc43)c3ccccc23)c2ccccc12
T/C (dose: 1.56 mg/kg/injection, schedule: Q01DX009 (ip), vehicle: distilled water + Tween-80): 140 and 144 % of control [9 of 10 alive] | T/C (dose: 3.12 mg/kg/injection, schedule: Q01DX009 (ip), vehicle: distilled water + Tween-80): 135 % of control | T/C (dose: 5.0 mg/kg/injection, schedule: Q01DX009 (ip), vehicle: saline with Tween-80): 136 % of control | T/C (dose: 6.25 mg/kg/injection, schedule: Q04DX003 (ip), vehicle: distilled water + Tween-80): 126 % of control | T/C (dose: 12.5 mg/kg/injection, schedule: Q04DX003 (ip), vehicle: distilled water + Tween-80): 135 % of control [8 of 10 alive] | survivor count (dose: 20.0 mg/kg/injection, schedule: Q01DX009 (ip), vehicle: distilled water + Tween-80): 10 of 10 | survivor count (dose: 25.0 mg/kg/injection, schedule: Q01DX009 (ip), vehicle: distilled water + Tween-80): 10 of 10 | survivor count (dose: 50.0 mg/kg/injection, schedule: Q04DX003 (ip), vehicle: distilled water + Tween-80): 6 of 10

COc1cc(/C=C/[N+](=O)[O-])c([N+](=O)[O-])cc1OC
survivor count [4]: 0 of 10 | survivor count [1]: 0 of 10 | survivor count [2]: 0 of 10

NC(=O)c1cn(C2OC(CO)C(O)C2O)c2ncnc(N)c12 (stereo not drawn)
survivor count (dose: 0.5 mg/kg/injection, schedule: Q01DX009 (ip), vehicle: water): 6 of 6 | survivor count (dose: 1.0 mg/kg/injection, schedule: Q01DX009 (ip), vehicle: saline): 6 of 6 | survivor count (dose: 1.0 mg/kg/injection, schedule: Q01DX009 (ip), vehicle: water): 5 of 6 | survivor count (dose: 1.5 mg/kg/injection, schedule: Q01DX009 (ip), vehicle: saline): 12 of 12 | survivor count (dose: 2.0 mg/kg/injection, schedule: Q01DX009 (ip), vehicle: saline): 6 of 6 | survivor count (dose: 4.0 mg/kg/injection, schedule: Q01DX009 (ip), vehicle: saline): 6 of 6 | survivor count (dose: 8.0 mg/kg/injection, schedule: Q01DX009 (ip), vehicle: saline): 0 of 6

CNc1nc(N)nc(Nc2ccc(I)cc2)c1N=O
T/C [1]: 126 % of control [9 of 10 alive] | survivor count [2]: 10 of 10

Nc1ccc(OCc2ccc(S(=O)(=O)F)c(Cl)c2)c(Cl)c1
survivor count [5]: 6 of 10

O=CC1CO1 (stereo not drawn)
survivor count (dose: 100.0 mg/kg/injection, schedule: Q01DX009 (ip), vehicle: saline sonified): 4 of 6

CC(=O)CC(C)=O.CC(=O)CC(C)=O.CC(=O)CC(C)=O.[V]
survivor count (dose: 12.5 mg/kg/injection, schedule: Q01DX009 (ip), vehicle: saline): 10 of 10 | survivor count (dose: 25.0 mg/kg/injection, schedule: Q01DX009 (ip), vehicle: saline): 3 of 10

O=S(c1ccccc1)c1c(Cl)c(Cl)nc(Cl)c1Cl (stereo not drawn)
survivor count (dose: 25.0 mg/kg/injection, schedule: Q01DX009 (ip), vehicle: Klucel (hydroxypropylcellulose) (HPC)): 10 of 10 | survivor count [4]: 6 of 10 | survivor count [1]: 0 of 10 | survivor count [2]: 0 of 10

COC(=O)C1=C(C)NC(=O)NC1c1ccc(N(CCCl)CCCl)c(OC)c1 (stereo not drawn)
T/C (dose: 1.56 mg/kg/injection, schedule: Q01DX009 (ip), vehicle: saline with Tween-80): 135 % of control | survivor count (dose: 6.25 mg/kg/injection, schedule: Q01DX009 (ip), vehicle: Klucel (hydroxypropylcellulose) (HPC)): 10 of 10 | survivor count (dose: 12.5 mg/kg/injection, schedule: Q01DX009 (ip), vehicle: Klucel (hydroxypropylcellulose) (HPC)): 7 of 10 | survivor count (dose: 12.5 mg/kg/injection, schedule: Q01DX009 (ip), vehicle: saline with Tween-80): 9 of 10 | survivor count (dose: 25.0 mg/kg/injection, schedule: Q01DX009 (ip), vehicle: saline with Tween-80): 8 of 10

CN(C(=S)S(=O)(=O)C12CC3CC(CC(C3)C1)C2)c1ccccc1
survivor count [1]: 9 of 10

O=c1ncccn1[C@@H]1O[C@H](CO)[C@H](O)C1O (stereo partly drawn)
T/C (dose: 50.0 mg/kg/injection, schedule: Q01DX009 (ip), vehicle: saline): 134 % of control | T/C (dose: 100.0 mg/kg/injection, schedule: Q01DX009 (ip), vehicle: saline, evaluated on day 60): 127 % of control | T/C (dose: 100.0 mg/kg/injection, schedule: Q01DX009 (ip), vehicle: saline, evaluated on day 65): 137 % of control | T/C (dose: 200.0 mg/kg/injection, schedule: Q01DX009 (ip), vehicle: saline, evaluated on day 60): 130 % of control | T/C (dose: 200.0 mg/kg/injection, schedule: Q01DX009 (ip), vehicle: saline, evaluated on day 65): 136 % of control | T/C [6]: 130 % of control

O=c1[nH]c(=O)n(C2CC(O)C(CO)O2)cc1Br (stereo not drawn)
T/C [1]: 126 % of control | T/C [2]: 126 % of control | T/C [5]: 129 % of control | T/C (dose: 800.0 mg/kg/injection, schedule: Q01DX009 (ip), vehicle: Klucel (hydroxypropylcellulose) (HPC)): 125 % of control [9 of 10 alive]

CCC(C)(CC)OC(N)=O
survivor count [7]: 0 of 10 | survivor count [6]: 8 of 10

CC(C)C(Br)C(=O)NCC(=O)O (stereo not drawn)
survivor count (dose: 100.0 mg/kg/injection, schedule: Q01DX009 (ip), vehicle: saline with Tween-80): 10 of 10 | survivor count (dose: 200.0 mg/kg/injection, schedule: Q01DX009 (ip), vehicle: saline with Tween-80): 10 of 10 | survivor count [7]: 10 of 10

CCC(C)C1NC(=O)C(NC(=O)c2c3nc4c(C(=O)NC5C(=O)NC(C(C)C)C(=O)N6CCCC6C(=O)N(C)CC(=O)N(C)C(C(C)C)C(=O)OC5C)ccc(C)c4oc-3c(C)c(=O)c2N)C(C)OC(=O)C(C(C)C)N(C)C(=O)CN(C)C(=O)C2CCCN2C1=O (stereo not drawn) (I: TIP[Sar][NMeV] / II: TVP[Sar][NMeV]; ester I:1-I:C, II:1-II:C; linker I:N-II:N via Actinocin(1to9); configuration not given here)
T/C (dose: 0.4 mg/kg/injection, schedule: Q01DX001 (ip), vehicle: water): 127 % of control | survivor count (dose: 0.8 mg/kg/injection, schedule: Q01DX001 (ip), vehicle: water): 7 of 10 | survivor count (dose: 1.6 mg/kg/injection, schedule: Q01DX001 (ip), vehicle: water): 0 of 10 | T/C (dose: 50.0 micrograms/kg/injection, schedule: Q01DX009 (ip), vehicle: water): 136 % of control | survivor count (dose: 100.0 micrograms/kg/injection, schedule: Q01DX009 (ip), vehicle: water): 10 of 10 | T/C (dose: 150.0 micrograms/kg/injection, schedule: Q04DX003 (ip), vehicle: water): 136 % of control | T/C (dose: 300.0 micrograms/kg/injection, schedule: Q04DX003 (ip), vehicle: water): 144 % of control | survivor count (dose: 600.0 micrograms/kg/injection, schedule: Q04DX003 (ip), vehicle: water): 9 of 10

C=C(CCCCC)C(=O)/C=C/c1ccc(Cl)cc1
survivor count (dose: 300.0 mg/kg/injection, schedule: Q04DX003 (ip), vehicle: Klucel (hydroxypropylcellulose) (HPC)): 10 of 10

CC(=O)[O][Hg][c]1cc(-c2ccc(N=Nc3c(S(=O)(=O)O)cc4cccc(N)c4c3O)cc2)ccc1N=Nc1c(S(=O)(=O)O)cc2cccc(N)c2c1O
survivor count (dose: 3.0 mg/kg/injection, schedule: Q01DX009 (ip), vehicle: saline with Tween-80): 10 of 10 | survivor count [3]: 10 of 10

O=c1[nH]c2ccccc2n1C1CCN(CCCC(c2ccc(F)cc2)c2ccc(F)cc2)CC1
survivor count [2]: 10 of 10 | survivor count [5]: 10 of 10

O=C(Nc1ccccc1C(F)(F)F)c1cccc(C(=O)Nc2ccccc2C(F)(F)F)c1
survivor count (dose: 400.0 mg/kg/injection, schedule: Q04DX003 (ip), vehicle: carboxymethylcellulose (CMC)): 10 of 10
